Assay results as given in PubChem BioAssay AID2417 (National Center for Advancing Translational Sciences (NCATS), 2010).
About 4,300 (3.1%) of roughly 140,000 compounds were called active. Inconclusive means that the source gave no clear call. Such entries were picked first, then a sample of the others.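 How the source made its calls: active means readout at or below -70, meaning at least 70% loss of cells showing the perinucleolar compartment, a nuclear body marking cancer cells; inconclusive means readout between -30 and a set limit; inactive means the rest.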

Test: High Content Assay for Compounds that inhibit the Assembly of the Perinucleolar Compartment;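 further: plate controls were DMSO wells for no effect and camptothecin positive control wells for full effect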
Conditions: PC3M PTB-GFP, PNC prevalence imaging, 16 h; at 10 µM; hits give low values
How it was run: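 PC3M cells stably expressing PTB-GFP, 750–1000 cells/well, treated 16 h at 37 °C with compound (23 nl of library stock), in duplicate. After paraformaldehyde fixation and Hoechst stain, imaged at 20x; PNC prevalence scored by image analysis.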

**Q.** With `COc1ccc(OC)c(CN(CCN2CCOCC2)C(=O)Nc2ccccc2)c1` as the compound, how does the activity change (PNC), negative = inhibition read?
**A.** inactive: -22.3%

**Q.** With `COc1cccc(C2CC(c3c(F)cccc3Cl)n3nc(N)nc3N2)c1` (stereo unspecified) as the compound, how does the activity change (PNC), negative = inhibition read?
**A.** active: -110%

**Q.** For `O=C(/C=C/Nc1ccc([N+](=O)[O-])cc1Br)c1cccc2ccccc12`, which activity change (PNC), negative = inhibition is on record?
**A.** inconclusive: -34.6%

**Q.** For `CC(C)CCNC(=O)C(c1ccncc1)N(Cc1cccs1)C(=O)Cn1nnc(-c2ccc(F)cc2)n1` (stereo unspecified), which activity change (PNC), negative = inhibition is on record?
**A.** active: -100%

**Q.** With `CCOC(=O)c1cnn(-c2ccccc2)c1NC(=O)CCl` as the compound, how does the activity change (PNC), negative = inhibition read?
**A.** inconclusive: -30.4%

**Q.** With `O=C(CN1C(=O)/C(=C\c2ccc(C(F)(F)F)cc2)Sc2ccccc21)NCc1ccco1` as the compound, how does the activity change (PNC), negative = inhibition read?
**A.** inactive: 37.6%

**Q.** With `O=C(N/N=C\c1ccc(-c2ccc([N+](=O)[O-])cc2)o1)c1ccc2c(c1)OCO2` as the compound, how does the activity change (PNC), negative = inhibition read?
**A.** inconclusive: -35.2%

**Q.** With `Cc1c(N=C2NC(=O)/C(=C/c3ccc(O)cc3)S2)c(=O)n(-c2ccccc2)n1C` as the compound, how does the activity change (PNC), negative = inhibition read?
**A.** inconclusive: -35%

**Q.** Which activity change (PNC), negative = inhibition does the source give for `O=C(CNS(=O)(=O)c1ccc(F)cc1)N1CCN(c2ccc(F)cc2)CC1` here?
**A.** inconclusive: -43.5%

**Q.** Which activity change (PNC), negative = inhibition does the source give for `Cc1ccc(-c2cc(C(F)F)n3ncc(C(=O)Nc4c(C)nn(Cc5ccccc5Cl)c4C)c3n2)cc1` here?
**A.** inactive: 54.8%

**Q.** With `Cn1c(=O)c2c(nc(Br)n2CCSc2nnnn2-c2ccccc2)n(C)c1=O` as the compound, how does the activity change (PNC), negative = inhibition read?
**A.** inconclusive: -48.1%

**Q.** For `Cc1noc(C)c1S(=O)(=O)N1CCCC(C(=O)NC2CCCCC2)C1` (stereo unspecified), which activity change (PNC), negative = inhibition is on record?
**A.** inconclusive: -31.4%

**Q.** Which activity change (PNC), negative = inhibition does the source give for `COc1ccc2nc(NC(=O)CSc3nc(C)cc(C)n3)sc2c1` here?
**A.** inactive: 31.6%

**Q.** For `CCn1nc(C)c(NC(=O)CCCSc2nc(-c3ccco3)cc(C(F)(F)F)n2)c1C`, which activity change (PNC), negative = inhibition is on record?
**A.** inconclusive: -53.9%

**Q.** Which activity change (PNC), negative = inhibition does the source give for `O=C1CC(SCc2nc3ccccc3[nH]2)C(=O)N1c1ccc(F)cc1` (stereo unspecified) here?
**A.** inconclusive: -76.2%

**Q.** Which activity change (PNC), negative = inhibition does the source give for `Cc1cc(C)cc(OCc2nnc(SCC(=O)Nc3ccccc3)o2)c1` here?
**A.** inconclusive: -35.7%

**Q.** Which activity change (PNC), negative = inhibition does the source give for `N#CC1=C(N)S[C@H](C(=O)C23CC4CC(CC(C4)C2)C3)[C@H]1c1ccncc1` here?
**A.** inconclusive: -51.9%

**Q.** For `Cc1ccc(Cl)cc1N1CCN(C(=O)c2cc3c(=O)n(C)c4ccccc4c3n2C)CC1`, which activity change (PNC), negative = inhibition is on record?
**A.** inconclusive: -43.1%

**Q.** For `Cc1ccc(/C(=N\O)c2oc3c(C)c4oc(=O)cc(C)c4cc3c2C)cc1`, which activity change (PNC), negative = inhibition is on record?
**A.** inactive: 39.1%

**Q.** With `O=C(Nc1ccccc1OC(F)F)c1ccc(Br)o1` as the compound, how does the activity change (PNC), negative = inhibition read?
**A.** inactive: 26.4%

**Q.** For `CCc1ccc(CNCc2cccnc2)cc1`, which activity change (PNC), negative = inhibition is on record?
**A.** inconclusive: -48.5%

**Q.** For `COc1ccc(C(=S)N2CCCCCC2)cc1`, which activity change (PNC), negative = inhibition is on record?
**A.** inconclusive: -73.6%

**Q.** Which activity change (PNC), negative = inhibition does the source give for `COCCn1c(=NC(=O)/C=C/c2ccccc2)sc2cc(NC(C)=O)ccc21` here?
**A.** inconclusive: -55.2%

**Q.** Which activity change (PNC), negative = inhibition does the source give for `CC(SCc1ccccc1)C(=O)N/N=C/c1ccc2c(c1)OCO2` (stereo unspecified) here?
**A.** inconclusive: -41.4%

**Q.** Which activity change (PNC), negative = inhibition does the source give for `N#CC1=C2N=C(N)c3c(sc4c3CCCCC4)N2C2=C(C(=O)CCC2)C1c1ccccc1` (stereo unspecified) here?
**A.** inactive: 16.8%

**Q.** With `O=C(Cc1cccc2ccccc12)NNC(=O)c1cccs1` as the compound, how does the activity change (PNC), negative = inhibition read?
**A.** inconclusive: -32.5%

**Q.** Which activity change (PNC), negative = inhibition does the source give for `Cn1c(C(=O)O)c(CC(=O)N2CCC(Cc3ccccc3)CC2)c2ccccc21` here?
**A.** inactive: -21.5%

**Q.** For `CC(NC(=O)c1ccncc1)C(c1cccs1)N1CCOCC1` (stereo unspecified), which activity change (PNC), negative = inhibition is on record?
**A.** inconclusive: -31.8%

**Q.** Which activity change (PNC), negative = inhibition does the source give for `C=CCSC1=N/C(=C/c2ccsc2)C(=O)N1c1ccccc1` here?
**A.** inactive: -7.19%

**Q.** With `NC(=O)C1CCN(C(=O)N2c3ccccc3Sc3ccccc32)CC1` as the compound, how does the activity change (PNC), negative = inhibition read?
**A.** inconclusive: -32.6%

**Q.** For `COc1ccc(C2NC3=C(CCCC3)C(C#N)(C#N)C2(C#N)C#N)cc1` (stereo unspecified), which activity change (PNC), negative = inhibition is on record?
**A.** inconclusive: -66.9%

**Q.** Which activity change (PNC), negative = inhibition does the source give for `CCOC(=O)N1CCC(NC(=O)c2cc(C)c3c(C)nn(-c4ccccc4)c3n2)CC1` here?
**A.** inconclusive: -52.7%

**Q.** For `COc1cc2cc(C(c3nnnn3C3CCCCC3)N(C)C3CCCCC3)c(=O)[nH]c2cc1OC` (stereo unspecified), which activity change (PNC), negative = inhibition is on record?
**A.** inconclusive: -45.8%

**Q.** With `Cc1ccc2cccc(OCC(=O)NCc3ccco3)c2n1` as the compound, how does the activity change (PNC), negative = inhibition read?
**A.** inconclusive: -42%

**Q.** For `CCOC(=O)N1CCC(NC(=O)CSc2cc(=O)n(C)c3ccccc23)CC1`, which activity change (PNC), negative = inhibition is on record?
**A.** inconclusive: -31.8%

**Q.** Which activity change (PNC), negative = inhibition does the source give for `COc1cc(C#CC#CCN2CCCCC2)ccc1O` here?
**A.** inconclusive: -40.4%

**Q.** Which activity change (PNC), negative = inhibition does the source give for `C(#Cc1ccc(C#CCN2CCCC2)cc1)CN1CCCC1` here?
**A.** active: -89.8%

**Q.** With `CC(c1nc2ccccc2c(=O)[nH]1)N(C)c1ccc2ccccc2c1` (stereo unspecified) as the compound, how does the activity change (PNC), negative = inhibition read?
**A.** inconclusive: -49%

**Q.** Which activity change (PNC), negative = inhibition does the source give for `CCOC(=O)Cc1csc(N)n1` here?
**A.** inconclusive: -38.8%

**Q.** Which activity change (PNC), negative = inhibition does the source give for `CCOc1ccc2nc(NC(=O)C3CCCN(S(=O)(=O)c4cccc5nonc45)C3)sc2c1` (stereo unspecified) here?
**A.** inactive: 3.5%

**Q.** Which activity change (PNC), negative = inhibition does the source give for `CCC(=O)NC(NC(=S)Nc1c(C)n(C)n(-c2ccccc2)c1=O)C(Cl)(Cl)Cl` (stereo unspecified) here?
**A.** inconclusive: -61.2%

**Q.** For `CCCC(=O)c1ccc(N2CCOCC2)c(F)c1`, which activity change (PNC), negative = inhibition is on record?
**A.** inactive: -13.6%

**Q.** With `FC(F)(F)c1nnc2c(Sc3ccc(Cl)cc3)nc3ccccc3n12` as the compound, how does the activity change (PNC), negative = inhibition read?
**A.** inconclusive: -75.3%

**Q.** For `CCN(CCC(=O)Nc1cc([N+](=O)[O-])ccc1OC)Cc1ccccc1`, which activity change (PNC), negative = inhibition is on record?
**A.** inactive: 0%

**Q.** Which activity change (PNC), negative = inhibition does the source give for `O=C(c1scc2c1CCCC2)N1CCCCC1` here?
**A.** inconclusive: -49%

**Q.** With `C=CCNc1nc(-c2sc(NC(C)=O)nc2C)cs1` as the compound, how does the activity change (PNC), negative = inhibition read?
**A.** inactive: -18.9%

**Q.** For `O=C(Cn1cc(C(=O)c2cccs2)c2ccccc21)NCC1CCCO1` (stereo unspecified), which activity change (PNC), negative = inhibition is on record?
**A.** inactive: -12.9%

**Q.** For `COC(=O)CC1=C(C(=O)OC)C(c2cccs2)C(C#N)=C(N)O1` (stereo unspecified), which activity change (PNC), negative = inhibition is on record?
**A.** active: -119%

**Q.** Which activity change (PNC), negative = inhibition does the source give for `Cc1cccc(NC(=O)CN2C(=O)N/C(=C/c3cc(C)n(-c4ccncc4)c3C)C2=O)c1` here?
**A.** inactive: 60.4%

**Q.** Which activity change (PNC), negative = inhibition does the source give for `CCCn1c(=N)n(CC(=O)c2ccco2)c2ccccc21` here?
**A.** inconclusive: -37.7%

**Q.** For `O=C(Nc1ccc(F)cc1Cl)c1ccc2c(=O)n3c(nc2c1)CCCCC3`, which activity change (PNC), negative = inhibition is on record?
**A.** inconclusive: -40%

**Q.** Which activity change (PNC), negative = inhibition does the source give for `CCOC(=O)CN1C(=O)C(O)=C(C(C)=O)C1c1ccc([N+](=O)[O-])cc1` (stereo unspecified) here?
**A.** active: -111%

**Q.** With `NC(=O)c1ccc(-c2ccc(Br)cc2)o1` as the compound, how does the activity change (PNC), negative = inhibition read?
**A.** inconclusive: -47.4%

**Q.** Which activity change (PNC), negative = inhibition does the source give for `COc1ccc(-c2nn(-c3ccccc3)cc2/C=C(\C#N)S(=O)(=O)c2ccccc2)cc1OC` here?
**A.** inactive: 42.1%

**Q.** For `C/C(Cn1nnc([N+](=O)[O-])n1)=N\NC(=O)c1ccccc1Cl`, which activity change (PNC), negative = inhibition is on record?
**A.** inactive: -25.7%

**Q.** Which activity change (PNC), negative = inhibition does the source give for `CC1=C(C(=O)OC2CCCC2)C(c2ccc(C)o2)C2=C(CC(c3cccs3)CC2=O)N1` (stereo unspecified) here?
**A.** inconclusive: -31.2%
